Results are given in words; binding and its absence hold for the method and conditions named. In cells and extracts the contact can be indirect. Some binding calls cover weakened binding; strength is not graded here.
Molecular target: acetyltransferase p300 (human (endogenous in MCF10A MII)) (UniProt Q09472)
Experiment: co-IP; lysates of MCF10A MII cells (1% Triton X-100, 20 mM Tris-HCl pH 7.5, 150 mM NaCl, 10% glycerol), treated or not with 5 ng/ml TGFβ for 45 min or 6 h; IP overnight with antibody to p63, HDAC3, SUZ12, p300 or SMAD2/3 or IgG control on Dynabeads; immunoblotting; in some panels ALK5 inhibitor SB505124, p38 inhibitor SB203580, or siRNA against SMAD2 and SMAD3 or p63

Protein sequences, listed by entry. Tags and fused reporters are not part of them.
UniProt Q09472: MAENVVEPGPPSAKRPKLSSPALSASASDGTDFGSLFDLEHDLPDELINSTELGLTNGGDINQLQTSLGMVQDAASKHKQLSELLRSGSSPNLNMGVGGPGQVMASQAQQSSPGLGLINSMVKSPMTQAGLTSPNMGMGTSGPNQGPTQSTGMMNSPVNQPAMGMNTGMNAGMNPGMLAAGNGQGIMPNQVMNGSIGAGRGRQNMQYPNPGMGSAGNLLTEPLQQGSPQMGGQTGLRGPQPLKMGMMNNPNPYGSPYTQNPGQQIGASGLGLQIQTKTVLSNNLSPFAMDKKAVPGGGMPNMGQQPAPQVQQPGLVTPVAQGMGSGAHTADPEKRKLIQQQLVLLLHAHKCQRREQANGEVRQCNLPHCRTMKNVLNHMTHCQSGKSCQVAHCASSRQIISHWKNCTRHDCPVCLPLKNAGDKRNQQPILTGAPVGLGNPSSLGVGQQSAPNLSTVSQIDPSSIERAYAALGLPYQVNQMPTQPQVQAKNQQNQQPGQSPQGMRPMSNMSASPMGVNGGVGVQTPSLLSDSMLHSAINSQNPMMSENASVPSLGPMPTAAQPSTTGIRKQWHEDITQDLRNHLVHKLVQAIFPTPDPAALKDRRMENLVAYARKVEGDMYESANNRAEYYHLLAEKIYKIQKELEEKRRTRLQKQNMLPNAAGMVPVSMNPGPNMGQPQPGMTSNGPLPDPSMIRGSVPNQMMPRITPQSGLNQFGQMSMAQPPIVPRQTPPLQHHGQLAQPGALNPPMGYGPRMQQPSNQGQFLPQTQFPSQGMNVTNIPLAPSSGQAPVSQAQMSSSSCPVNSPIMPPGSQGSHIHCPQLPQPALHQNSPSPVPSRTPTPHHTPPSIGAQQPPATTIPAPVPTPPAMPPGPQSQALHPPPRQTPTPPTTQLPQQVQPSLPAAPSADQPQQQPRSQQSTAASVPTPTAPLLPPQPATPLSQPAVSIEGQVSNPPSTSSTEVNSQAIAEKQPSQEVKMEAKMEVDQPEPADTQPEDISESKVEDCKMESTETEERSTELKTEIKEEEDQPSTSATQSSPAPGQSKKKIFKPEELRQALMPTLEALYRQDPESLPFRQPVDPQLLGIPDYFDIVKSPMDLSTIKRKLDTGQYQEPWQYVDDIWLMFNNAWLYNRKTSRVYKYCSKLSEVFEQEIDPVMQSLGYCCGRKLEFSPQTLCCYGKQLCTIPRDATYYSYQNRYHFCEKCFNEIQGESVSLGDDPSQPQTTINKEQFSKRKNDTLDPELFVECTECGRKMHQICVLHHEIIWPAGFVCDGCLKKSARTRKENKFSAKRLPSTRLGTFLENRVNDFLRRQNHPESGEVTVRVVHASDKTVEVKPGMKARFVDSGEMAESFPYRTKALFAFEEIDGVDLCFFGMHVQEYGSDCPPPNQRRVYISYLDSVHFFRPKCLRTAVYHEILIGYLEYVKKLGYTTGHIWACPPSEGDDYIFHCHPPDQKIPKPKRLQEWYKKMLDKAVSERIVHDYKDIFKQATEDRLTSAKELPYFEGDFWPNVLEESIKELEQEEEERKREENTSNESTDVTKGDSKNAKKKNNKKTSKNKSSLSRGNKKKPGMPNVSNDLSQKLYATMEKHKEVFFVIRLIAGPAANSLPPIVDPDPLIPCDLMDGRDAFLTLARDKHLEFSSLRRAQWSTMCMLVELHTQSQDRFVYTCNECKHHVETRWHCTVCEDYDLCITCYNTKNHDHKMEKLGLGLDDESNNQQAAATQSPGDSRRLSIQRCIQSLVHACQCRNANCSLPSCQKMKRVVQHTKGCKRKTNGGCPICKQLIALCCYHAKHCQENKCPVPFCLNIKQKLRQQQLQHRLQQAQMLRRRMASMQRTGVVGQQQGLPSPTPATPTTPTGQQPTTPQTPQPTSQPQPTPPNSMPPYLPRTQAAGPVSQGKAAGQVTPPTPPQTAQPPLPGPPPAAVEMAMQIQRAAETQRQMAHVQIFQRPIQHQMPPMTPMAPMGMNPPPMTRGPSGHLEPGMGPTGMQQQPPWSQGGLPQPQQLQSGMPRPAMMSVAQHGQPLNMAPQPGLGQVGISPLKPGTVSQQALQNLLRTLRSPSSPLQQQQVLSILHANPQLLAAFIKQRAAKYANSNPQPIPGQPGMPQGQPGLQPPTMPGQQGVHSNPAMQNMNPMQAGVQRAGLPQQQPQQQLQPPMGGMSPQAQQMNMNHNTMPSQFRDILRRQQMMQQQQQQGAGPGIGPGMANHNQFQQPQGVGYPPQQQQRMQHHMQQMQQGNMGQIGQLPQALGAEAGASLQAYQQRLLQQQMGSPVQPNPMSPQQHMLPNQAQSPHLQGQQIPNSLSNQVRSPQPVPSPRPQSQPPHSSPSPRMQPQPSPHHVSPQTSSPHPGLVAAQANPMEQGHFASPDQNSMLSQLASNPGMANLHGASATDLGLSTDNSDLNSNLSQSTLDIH
UniProt Q15796: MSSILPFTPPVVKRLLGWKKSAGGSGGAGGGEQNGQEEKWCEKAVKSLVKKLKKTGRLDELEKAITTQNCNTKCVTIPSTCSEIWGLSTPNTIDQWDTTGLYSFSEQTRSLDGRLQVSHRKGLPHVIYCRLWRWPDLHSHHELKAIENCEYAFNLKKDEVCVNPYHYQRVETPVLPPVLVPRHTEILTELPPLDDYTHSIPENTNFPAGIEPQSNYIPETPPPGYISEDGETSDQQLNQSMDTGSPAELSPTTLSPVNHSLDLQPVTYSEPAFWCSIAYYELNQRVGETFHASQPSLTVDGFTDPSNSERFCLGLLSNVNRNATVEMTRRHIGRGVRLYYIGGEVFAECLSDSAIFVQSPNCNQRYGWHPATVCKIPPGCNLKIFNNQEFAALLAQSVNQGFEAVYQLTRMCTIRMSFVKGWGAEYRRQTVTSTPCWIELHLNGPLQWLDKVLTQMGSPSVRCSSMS
UniProt P84022: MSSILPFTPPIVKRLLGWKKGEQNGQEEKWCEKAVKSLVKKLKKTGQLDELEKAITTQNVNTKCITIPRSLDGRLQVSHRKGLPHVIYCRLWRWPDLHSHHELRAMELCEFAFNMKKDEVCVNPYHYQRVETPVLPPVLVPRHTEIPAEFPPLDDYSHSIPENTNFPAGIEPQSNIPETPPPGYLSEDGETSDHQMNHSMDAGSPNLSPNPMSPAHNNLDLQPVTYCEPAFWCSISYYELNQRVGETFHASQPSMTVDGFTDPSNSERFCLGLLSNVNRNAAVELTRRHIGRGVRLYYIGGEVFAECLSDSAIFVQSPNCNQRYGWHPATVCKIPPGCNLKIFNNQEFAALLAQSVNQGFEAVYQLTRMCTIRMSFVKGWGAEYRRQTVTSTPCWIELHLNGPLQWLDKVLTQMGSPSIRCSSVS

binding | Substance
binds | SMAD2 (from UniProt Q15796 1-467)
binds | SMAD3 (from UniProt P84022 1-425)
